Test results: patent publication US20110230476A1

Chains of the proteins cited; added tags and fusions are not shown.
UniProt P42336, whole entry: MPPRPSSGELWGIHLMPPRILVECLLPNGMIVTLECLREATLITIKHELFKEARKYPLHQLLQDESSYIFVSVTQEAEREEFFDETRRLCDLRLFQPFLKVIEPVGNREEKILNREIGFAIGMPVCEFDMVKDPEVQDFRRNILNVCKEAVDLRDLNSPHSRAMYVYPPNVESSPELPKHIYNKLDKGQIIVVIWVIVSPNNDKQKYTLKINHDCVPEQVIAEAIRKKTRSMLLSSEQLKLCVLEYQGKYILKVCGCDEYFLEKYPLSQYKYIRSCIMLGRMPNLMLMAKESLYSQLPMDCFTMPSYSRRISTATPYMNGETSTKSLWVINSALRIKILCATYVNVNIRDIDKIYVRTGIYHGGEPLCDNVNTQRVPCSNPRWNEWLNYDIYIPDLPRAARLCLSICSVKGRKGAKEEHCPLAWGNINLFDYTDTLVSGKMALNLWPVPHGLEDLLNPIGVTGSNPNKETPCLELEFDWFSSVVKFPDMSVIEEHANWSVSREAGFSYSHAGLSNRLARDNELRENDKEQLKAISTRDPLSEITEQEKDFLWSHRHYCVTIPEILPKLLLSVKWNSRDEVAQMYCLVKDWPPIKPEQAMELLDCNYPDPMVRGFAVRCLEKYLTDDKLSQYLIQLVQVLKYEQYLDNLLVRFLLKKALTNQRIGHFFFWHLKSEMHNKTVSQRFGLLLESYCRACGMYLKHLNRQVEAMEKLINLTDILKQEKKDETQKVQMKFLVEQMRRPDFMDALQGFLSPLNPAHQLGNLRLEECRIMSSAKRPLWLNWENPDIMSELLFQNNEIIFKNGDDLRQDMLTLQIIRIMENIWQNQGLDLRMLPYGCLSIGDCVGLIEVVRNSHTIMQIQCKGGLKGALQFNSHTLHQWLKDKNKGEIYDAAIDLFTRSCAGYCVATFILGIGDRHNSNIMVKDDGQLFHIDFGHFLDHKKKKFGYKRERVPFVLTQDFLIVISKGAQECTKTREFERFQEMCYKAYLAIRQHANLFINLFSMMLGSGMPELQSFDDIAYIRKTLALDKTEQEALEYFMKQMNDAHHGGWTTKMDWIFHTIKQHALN
UniProt P48736, whole entry: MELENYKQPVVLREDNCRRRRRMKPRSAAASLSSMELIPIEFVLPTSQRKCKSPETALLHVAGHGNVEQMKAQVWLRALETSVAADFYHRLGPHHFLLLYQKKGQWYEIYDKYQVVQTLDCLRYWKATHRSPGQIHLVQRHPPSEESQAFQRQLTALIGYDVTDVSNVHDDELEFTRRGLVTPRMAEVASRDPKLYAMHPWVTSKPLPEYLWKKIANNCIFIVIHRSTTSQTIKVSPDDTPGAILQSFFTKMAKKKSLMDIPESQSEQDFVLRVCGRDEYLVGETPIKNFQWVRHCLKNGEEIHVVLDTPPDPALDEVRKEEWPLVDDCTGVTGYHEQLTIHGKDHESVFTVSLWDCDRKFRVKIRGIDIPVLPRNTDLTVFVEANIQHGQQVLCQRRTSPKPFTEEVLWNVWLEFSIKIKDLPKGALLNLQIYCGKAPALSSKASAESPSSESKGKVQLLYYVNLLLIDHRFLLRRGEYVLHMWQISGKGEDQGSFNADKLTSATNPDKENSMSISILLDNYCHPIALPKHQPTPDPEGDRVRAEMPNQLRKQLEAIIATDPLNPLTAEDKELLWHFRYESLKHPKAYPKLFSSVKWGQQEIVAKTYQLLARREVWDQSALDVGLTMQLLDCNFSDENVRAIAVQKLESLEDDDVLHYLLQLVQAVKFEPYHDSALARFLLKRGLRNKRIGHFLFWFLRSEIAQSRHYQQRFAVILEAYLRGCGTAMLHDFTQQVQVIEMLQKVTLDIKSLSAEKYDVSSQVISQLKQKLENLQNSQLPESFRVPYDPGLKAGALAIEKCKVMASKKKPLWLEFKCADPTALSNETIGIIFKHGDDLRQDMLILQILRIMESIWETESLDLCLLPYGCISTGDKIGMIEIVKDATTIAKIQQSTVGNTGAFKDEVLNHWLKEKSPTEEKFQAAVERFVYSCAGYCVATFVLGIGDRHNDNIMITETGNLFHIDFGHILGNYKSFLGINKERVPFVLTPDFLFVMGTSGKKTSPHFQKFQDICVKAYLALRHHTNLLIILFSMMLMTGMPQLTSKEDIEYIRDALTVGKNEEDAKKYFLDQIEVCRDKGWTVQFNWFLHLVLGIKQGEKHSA
UniProt P42338, whole entry: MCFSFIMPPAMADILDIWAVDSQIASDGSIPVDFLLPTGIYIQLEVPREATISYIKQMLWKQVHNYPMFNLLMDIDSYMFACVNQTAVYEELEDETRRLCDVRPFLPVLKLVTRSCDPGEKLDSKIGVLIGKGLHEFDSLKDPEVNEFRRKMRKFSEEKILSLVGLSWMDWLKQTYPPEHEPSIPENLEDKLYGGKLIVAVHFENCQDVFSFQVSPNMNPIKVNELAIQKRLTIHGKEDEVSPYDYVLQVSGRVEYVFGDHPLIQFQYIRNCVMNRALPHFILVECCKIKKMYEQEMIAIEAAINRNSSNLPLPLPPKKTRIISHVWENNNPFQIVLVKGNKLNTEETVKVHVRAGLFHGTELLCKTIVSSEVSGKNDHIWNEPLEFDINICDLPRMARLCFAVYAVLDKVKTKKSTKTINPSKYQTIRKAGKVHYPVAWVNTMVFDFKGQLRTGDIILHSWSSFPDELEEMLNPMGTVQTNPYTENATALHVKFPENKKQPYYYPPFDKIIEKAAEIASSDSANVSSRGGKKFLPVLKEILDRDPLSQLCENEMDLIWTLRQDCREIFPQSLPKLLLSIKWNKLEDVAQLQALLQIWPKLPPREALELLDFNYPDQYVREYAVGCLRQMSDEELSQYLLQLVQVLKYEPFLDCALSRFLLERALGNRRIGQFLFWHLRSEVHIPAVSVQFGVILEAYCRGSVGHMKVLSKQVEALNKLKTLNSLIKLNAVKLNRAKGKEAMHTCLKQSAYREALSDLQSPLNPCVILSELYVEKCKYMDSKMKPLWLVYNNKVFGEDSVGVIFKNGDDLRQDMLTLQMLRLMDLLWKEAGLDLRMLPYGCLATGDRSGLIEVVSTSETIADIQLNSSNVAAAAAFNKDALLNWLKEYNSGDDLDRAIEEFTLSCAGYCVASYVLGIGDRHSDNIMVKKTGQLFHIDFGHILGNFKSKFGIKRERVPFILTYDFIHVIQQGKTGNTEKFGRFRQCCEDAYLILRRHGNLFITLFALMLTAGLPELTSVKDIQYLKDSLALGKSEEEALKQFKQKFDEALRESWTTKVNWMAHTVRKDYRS
UniProt P27986, whole entry partner: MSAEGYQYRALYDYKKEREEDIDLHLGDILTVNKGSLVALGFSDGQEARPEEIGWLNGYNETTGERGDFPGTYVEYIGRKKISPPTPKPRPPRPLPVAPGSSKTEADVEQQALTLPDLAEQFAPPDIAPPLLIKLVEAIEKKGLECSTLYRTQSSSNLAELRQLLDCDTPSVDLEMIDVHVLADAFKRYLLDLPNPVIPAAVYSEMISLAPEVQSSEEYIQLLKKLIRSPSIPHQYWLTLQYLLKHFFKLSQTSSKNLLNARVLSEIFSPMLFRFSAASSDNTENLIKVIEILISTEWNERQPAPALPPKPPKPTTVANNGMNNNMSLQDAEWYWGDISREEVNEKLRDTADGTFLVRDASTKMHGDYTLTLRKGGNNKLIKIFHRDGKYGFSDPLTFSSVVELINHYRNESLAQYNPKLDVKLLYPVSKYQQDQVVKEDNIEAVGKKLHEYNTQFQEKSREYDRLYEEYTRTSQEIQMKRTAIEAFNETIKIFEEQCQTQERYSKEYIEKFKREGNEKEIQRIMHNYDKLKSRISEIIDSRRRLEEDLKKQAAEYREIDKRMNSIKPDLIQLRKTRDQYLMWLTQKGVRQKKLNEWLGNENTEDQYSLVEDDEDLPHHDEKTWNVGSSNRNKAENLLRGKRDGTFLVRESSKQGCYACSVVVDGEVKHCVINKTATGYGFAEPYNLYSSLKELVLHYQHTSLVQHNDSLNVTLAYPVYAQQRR

Columns and labels:
PI3Kα (p110α/p85α) = PI3Kα (p110α/p85α) (Homo sapiens, UniProt P42336); assay: HTRF assay, potency against active PI3Kα; format: biochemical; conditions: read-out: PI3Kα Inhibition, [ATP]=50 μM, [di-C8-PIP2]=10 μM, 30 min pre-incubation
PI3Kγ (p120γ) = PI3Kγ (p120γ) (Homo sapiens, UniProt P48736); assay: HTRF assay, potency against active PI3Kγ; conditions: read-out: PI3Kγ Inhibition, [ATP]=50 μM, [di-C8-PIP2]=10 μM, 30 min pre-incubation
PI3K = PI3K HCT116 cellular assay (Western blot); conditions: read-out: PI3K Inhibition, HCT116 colon cancer cells, 1 hour incubation
PI3Kβ (p110β/p85α) = PI3Kβ (p110β/p85α) (Homo sapiens, UniProt P42338); assay: HTRF assay, potency against active PI3Kβ; format: biochemical; conditions: read-out: PI3Kβ Inhibition, [ATP]=50 μM, [di-C8-PIP2]=10 μM, 30 min pre-incubation
Phospho-Akt(Ser473) = assay: Dose response in SKOV3 cells as determined by in-cell Western; format: cell-based; conditions: read-out: pAKT Inhibition in cell Western, 1 hr

Compound `C/C=C/C(=O)CCC(=O)N1CCC(n2nc(-c3cc4cc(O)ccc4[nH]3)c3c(N)ncnc32)CC1` has an IC50 (PI3Kα (p110α/p85α)) greater than 1000 nM.

Work on `C/C=C/C(=O)CCC(=O)N1CCC(c2cc3nc(-c4cccc(O)c4)nc(N4CCOCC4)c3s2)C(OC(=O)C(F)(F)F)C1` (stereo not shown) yielded an IC50 (PI3Kγ (p120γ)) of 100 to 1000 nM, an EC50 (PI3K) of 100 to 500 nM and an IC50 (PI3Kα (p110α/p85α)) of 10 to 100 nM.

In the case of `C=CC(=O)Nc1ccc(C(=O)N2CC=C(c3cc4nc(-c5cnc(N)nc5)nc(C5=CCOCC5)c4s3)CC2)cc1`, the IC50 (PI3Kβ (p110β/p85α)) is reported as 100 to 1000 nM, the IC50 (PI3Kα (p110α/p85α)) is reported as 10 to 100 nM and the EC50 (Phospho-Akt(Ser473)) is reported as 10 to 100 nM.

The match of structure and compound is tentative.
